Results taken from patent US20070010428A1, “Inhibitors of signal transduction and activator of transcription 3” (priority 2004, published 2007).
At least one structure is not confirmed: it was looked up by name or label, or the drawing left a doubt. Where a SMILES comes first, the peptide text is derived from it. [ ]: non-standard residue; d: D form. The star is where a group is joined. 5FAM = O=C1OC2(c3ccc(O)cc3Oc3cc(O)ccc32)c2ccc(C(=O)*)cc21; pY = N[C@@H](Cc1ccc(OP(=O)(O)O)cc1)C(=O)O

By UniProt entry, the sequences of proteins in these tests, tags left out.
UniProt P40763, whole entry, species assumed: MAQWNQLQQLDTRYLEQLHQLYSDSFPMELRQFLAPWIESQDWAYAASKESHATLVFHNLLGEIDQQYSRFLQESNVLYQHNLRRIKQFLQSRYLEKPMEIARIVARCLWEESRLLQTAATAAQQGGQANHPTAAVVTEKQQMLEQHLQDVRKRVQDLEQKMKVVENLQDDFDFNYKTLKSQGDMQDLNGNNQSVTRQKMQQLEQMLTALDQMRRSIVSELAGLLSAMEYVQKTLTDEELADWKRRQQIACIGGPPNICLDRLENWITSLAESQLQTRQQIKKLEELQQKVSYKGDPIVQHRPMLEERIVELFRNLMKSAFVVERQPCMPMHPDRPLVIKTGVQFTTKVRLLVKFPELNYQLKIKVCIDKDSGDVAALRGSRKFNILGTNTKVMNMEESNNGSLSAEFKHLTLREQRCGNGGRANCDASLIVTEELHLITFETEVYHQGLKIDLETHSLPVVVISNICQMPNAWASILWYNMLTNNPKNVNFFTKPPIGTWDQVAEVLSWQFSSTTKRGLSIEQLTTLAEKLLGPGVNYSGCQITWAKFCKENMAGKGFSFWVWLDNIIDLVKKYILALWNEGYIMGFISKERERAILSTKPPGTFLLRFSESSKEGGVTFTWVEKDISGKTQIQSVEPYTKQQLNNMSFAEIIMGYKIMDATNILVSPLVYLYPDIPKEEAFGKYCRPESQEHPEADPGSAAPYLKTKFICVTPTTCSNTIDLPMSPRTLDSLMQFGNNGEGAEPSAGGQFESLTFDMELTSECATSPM

Target: T1, full length Stat3 (Homo sapiens, UniProt P40763)
T1 construct: Aliquots of 50 μl of 80 nM full length Stat^3a and 20 nM of probe
Test: Fluorescence polarization assay, competition with FP probe for full length Stat3
Conditions: read-out: Kd for binding to full length Stat3; titration of full length Stat3 into FP probe
Description: FIG. 5 is FP curves of Stat3. Left panel, Titration of full length Stat3 into 10 nM solutions of FP probe. Each protein concentration was run in duplicate and the mean ±½ the difference between the high and low value was plotted. […] Each peptide concentration was run in duplicate and the mean ±½ the difference between the high and low value was plotted. A Perkin Elmer (formerly Packard) 204DT Multiprobe liquid handling robot was used to prepare serial dilutions of the inhibitors and to add these solutions to Stat3-probe solutions. The dilutions and additions were done in 96-well plates and FP was read on a Tecan Polarian plate reader. […]
Fluorescence polarization (FP) is a rapid and easy method for the measurement of peptide-protein interactions, drug-protein interactions, and drug-oligonucleotide interactions, and is readily adaptable to high throughput formats (reviewed in Nasir & Joley, 1999; Owicki, 2000). FP involves exciting a fluorophore with polarized light and taking the ratio of fluorescence at right angles after a brief period of time. […]
Aliquots of 50 μl of 80 nM full length Stat^3a and 20 nM of probe in 50 mM NaCl, 10 mM Hepes, 1 mM Na4EDTA, 2 mM DTT, and 1% NP-40 were placed in wells of a 96 well black, opaque, non-stick microtiter plate. […] Fluorescence polarization was then read in a Tecan Polarian plate reader. […]

**Q.** With `CC(C)C[C@H](NC(=O)[C@H](Cc1ccc(OP(=O)(O)O)cc1)NC(=O)[C@H](C)NC(=O)c1ccc2c(c1)C(=O)OC21c2ccc(O)cc2Oc2cc(O)ccc21)C(=O)N1CCC[C@H]1C(=O)N[C@@H](CCC(N)=O)C(=O)N[C@H](C(=O)N[C@H](C(N)=O)C(C)C)[C@@H](C)O` [FP probe, fluorescein-5-carboxyl-Ala-pTyr-Leu-Pro-Gln-Thr-Val-NH2, reference compound] (5FAM-A[pY]LPQTV-NH2) as the compound, how does the Kd read?
**A.** The Kd was ~50 nM.
